Publication PMC6969111
Results are given in words; binding and its absence hold for the method and conditions named. Binding seen in cells or lysates may run through a third protein. Some entries that bind do so weakly or less than the wild type.

Protein sequences, listed by entry. Tags and fused reporters are not part of them.
UniProt Q9R049: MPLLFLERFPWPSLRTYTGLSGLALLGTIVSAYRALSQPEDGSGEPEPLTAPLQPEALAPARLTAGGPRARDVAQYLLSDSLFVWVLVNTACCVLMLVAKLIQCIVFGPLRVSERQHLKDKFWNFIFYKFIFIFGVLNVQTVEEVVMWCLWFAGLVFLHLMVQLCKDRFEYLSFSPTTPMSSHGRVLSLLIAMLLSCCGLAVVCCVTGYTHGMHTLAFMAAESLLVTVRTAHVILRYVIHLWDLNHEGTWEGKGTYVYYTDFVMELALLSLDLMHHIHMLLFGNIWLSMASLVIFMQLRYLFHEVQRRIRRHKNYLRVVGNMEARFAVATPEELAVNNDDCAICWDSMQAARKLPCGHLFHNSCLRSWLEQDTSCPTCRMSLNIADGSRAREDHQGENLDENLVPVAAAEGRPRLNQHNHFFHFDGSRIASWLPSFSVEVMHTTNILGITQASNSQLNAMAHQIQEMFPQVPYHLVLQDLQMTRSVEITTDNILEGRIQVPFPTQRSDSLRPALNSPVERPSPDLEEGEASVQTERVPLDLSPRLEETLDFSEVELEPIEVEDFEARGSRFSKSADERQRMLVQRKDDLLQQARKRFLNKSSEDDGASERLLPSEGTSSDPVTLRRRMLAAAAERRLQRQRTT

Molecular target: T1, Insig-2 in C2C12 cells (Supplementary Fig. 1g) (UniProt Q9Y5U4)
T1 sequence: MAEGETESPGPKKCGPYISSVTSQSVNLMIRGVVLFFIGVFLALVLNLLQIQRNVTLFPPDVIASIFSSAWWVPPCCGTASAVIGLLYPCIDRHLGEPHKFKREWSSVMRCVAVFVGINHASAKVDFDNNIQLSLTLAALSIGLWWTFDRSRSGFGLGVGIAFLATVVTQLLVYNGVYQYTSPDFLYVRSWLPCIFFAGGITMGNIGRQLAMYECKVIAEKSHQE
Test: co-IP; C2C12 cells, undifferentiated and differentiated; IP of Insig-2, gp78 detected by blotting; IP buffer (1× PBS, 1% digitonin, 5 mM EDTA, 5 mM EGTA)

With “gp78 in C2C12 cells (Supplementary Fig. 1g) (from UniProt Q9R049 1-643) (enzyme)” the binding was “binds”.
